Data on two substances can be found in publication doi:10.1101/2023.01.12.523351.

Protein sequences, listed by entry. Tags and fused reporters are not part of them.
UniProt P53566: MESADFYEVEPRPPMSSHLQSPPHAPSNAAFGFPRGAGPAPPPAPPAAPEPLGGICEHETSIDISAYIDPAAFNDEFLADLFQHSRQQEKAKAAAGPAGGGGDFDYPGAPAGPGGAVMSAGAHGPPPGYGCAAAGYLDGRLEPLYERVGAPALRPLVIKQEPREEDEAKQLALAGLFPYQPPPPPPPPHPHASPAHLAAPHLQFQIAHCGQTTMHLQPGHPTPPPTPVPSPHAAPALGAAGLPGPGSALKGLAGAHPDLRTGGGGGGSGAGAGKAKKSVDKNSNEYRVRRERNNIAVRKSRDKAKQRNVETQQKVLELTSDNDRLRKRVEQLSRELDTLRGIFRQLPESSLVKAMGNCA
UniProt Q9R1E0: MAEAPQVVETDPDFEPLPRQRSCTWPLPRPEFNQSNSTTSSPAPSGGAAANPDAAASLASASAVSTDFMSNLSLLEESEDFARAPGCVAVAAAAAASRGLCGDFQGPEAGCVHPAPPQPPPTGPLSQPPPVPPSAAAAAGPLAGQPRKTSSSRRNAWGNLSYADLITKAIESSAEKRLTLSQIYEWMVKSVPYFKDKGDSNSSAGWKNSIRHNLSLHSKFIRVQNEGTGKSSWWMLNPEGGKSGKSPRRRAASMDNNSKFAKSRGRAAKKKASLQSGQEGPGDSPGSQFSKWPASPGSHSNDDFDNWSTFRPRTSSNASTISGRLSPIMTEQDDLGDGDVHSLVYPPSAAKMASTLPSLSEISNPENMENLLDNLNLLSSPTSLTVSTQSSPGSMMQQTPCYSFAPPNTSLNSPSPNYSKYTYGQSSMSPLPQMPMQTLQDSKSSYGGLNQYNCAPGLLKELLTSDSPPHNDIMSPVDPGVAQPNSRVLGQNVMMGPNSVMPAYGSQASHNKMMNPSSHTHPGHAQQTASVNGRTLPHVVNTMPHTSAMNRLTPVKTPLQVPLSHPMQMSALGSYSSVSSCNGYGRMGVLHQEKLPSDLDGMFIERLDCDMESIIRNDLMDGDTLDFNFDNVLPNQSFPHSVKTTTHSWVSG
UniProt Q8BUN5: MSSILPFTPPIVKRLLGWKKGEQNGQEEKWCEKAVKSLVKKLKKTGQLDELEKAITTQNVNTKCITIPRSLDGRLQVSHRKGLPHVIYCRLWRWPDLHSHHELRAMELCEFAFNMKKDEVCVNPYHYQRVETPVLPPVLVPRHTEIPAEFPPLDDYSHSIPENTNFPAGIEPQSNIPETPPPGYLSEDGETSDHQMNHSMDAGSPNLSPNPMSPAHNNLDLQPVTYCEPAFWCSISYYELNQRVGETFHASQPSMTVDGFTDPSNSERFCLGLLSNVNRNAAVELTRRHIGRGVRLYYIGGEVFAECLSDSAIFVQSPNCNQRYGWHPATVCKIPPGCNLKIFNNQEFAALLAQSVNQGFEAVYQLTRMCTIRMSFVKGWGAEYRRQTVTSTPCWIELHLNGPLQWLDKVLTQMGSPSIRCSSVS
UniProt Q62432: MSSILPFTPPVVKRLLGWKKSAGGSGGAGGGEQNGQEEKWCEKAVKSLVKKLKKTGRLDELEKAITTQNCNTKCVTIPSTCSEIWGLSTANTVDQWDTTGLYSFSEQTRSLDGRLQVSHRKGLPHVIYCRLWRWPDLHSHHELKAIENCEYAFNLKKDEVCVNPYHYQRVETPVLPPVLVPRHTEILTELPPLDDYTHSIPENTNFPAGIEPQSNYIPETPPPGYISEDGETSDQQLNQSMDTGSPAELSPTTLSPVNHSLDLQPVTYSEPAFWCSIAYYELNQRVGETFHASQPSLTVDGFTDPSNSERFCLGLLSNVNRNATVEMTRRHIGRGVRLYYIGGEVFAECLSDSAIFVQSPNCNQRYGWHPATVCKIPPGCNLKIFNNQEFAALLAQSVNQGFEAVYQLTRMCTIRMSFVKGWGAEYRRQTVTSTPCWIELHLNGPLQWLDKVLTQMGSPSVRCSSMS

Assay [1] has as its target C/EBPα (mouse (endogenous in AML12)) (UniProt P53566). As to the kind of experiment: co-IP.
Assay [2] concerns the target Forkhead box O1 (FOXO1) (mouse (endogenous in AML12)) (UniProt Q9R1E0). As to the kind of experiment: co-IP.

No constants are given. Whether binding was seen depends on the method and setting. In cells and extracts the contact can be indirect.

As for SMAD3 (from UniProt Q8BUN5 1-425), the binding result in assay [1] was “no binding”.
As for SMAD2 (from UniProt Q62432 1-467), the binding result in assay [2] and in assay [1] was “no binding” throughout.
